Assay results from PMC10818623, “Assessing Trans-Inhibition of OATP1B1 and OATP1B3 by Calcineurin and/or PPIase Inhibitors and Global Identification of OATP1B1/3-Associated Proteins” (Pharmaceutics, 2023).

Sequences of proteins named here, by UniProt entry; tags and fusion partners are left off. Residues count along the entry.
UniProt Q9UKV5: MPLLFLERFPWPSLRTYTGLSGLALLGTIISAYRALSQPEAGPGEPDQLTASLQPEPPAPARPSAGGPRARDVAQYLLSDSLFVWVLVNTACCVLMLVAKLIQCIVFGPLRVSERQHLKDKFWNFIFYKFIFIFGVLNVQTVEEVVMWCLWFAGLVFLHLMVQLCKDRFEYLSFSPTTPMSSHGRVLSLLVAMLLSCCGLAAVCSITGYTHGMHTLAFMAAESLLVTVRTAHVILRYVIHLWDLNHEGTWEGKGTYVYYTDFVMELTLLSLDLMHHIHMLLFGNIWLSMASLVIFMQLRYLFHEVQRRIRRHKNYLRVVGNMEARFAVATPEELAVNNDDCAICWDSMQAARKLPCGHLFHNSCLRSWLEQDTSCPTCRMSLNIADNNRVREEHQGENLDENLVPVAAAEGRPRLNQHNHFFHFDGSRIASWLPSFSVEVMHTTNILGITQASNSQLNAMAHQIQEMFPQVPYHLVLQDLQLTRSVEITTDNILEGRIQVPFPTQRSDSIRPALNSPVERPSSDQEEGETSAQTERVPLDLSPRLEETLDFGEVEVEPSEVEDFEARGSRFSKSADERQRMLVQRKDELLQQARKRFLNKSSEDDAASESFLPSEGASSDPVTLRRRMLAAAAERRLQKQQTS
UniProt Q99942: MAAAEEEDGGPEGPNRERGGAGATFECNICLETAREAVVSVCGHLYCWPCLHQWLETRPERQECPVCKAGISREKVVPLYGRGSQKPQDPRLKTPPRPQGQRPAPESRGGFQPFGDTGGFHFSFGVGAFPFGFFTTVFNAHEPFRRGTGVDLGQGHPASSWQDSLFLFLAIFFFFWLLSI
UniProt P23284, residues 34-216: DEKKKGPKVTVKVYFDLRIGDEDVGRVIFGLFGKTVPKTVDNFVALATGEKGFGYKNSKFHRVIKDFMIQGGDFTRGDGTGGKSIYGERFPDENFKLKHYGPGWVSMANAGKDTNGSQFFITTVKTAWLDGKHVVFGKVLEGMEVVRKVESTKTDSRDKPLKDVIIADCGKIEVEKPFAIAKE
UniProt P31751: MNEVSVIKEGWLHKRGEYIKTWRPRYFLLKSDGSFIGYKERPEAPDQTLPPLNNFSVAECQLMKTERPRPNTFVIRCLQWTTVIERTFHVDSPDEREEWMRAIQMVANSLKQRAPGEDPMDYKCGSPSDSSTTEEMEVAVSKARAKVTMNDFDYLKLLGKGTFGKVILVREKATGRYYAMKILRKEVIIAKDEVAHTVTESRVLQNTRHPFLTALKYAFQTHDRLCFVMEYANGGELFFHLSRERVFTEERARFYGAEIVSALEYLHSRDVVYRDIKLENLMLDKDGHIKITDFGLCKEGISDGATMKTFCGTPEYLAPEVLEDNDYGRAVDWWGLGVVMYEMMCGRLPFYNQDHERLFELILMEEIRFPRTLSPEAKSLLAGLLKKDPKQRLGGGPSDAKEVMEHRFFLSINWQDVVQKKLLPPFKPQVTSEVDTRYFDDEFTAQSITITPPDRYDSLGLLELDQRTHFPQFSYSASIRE
UniProt Q8TDX7: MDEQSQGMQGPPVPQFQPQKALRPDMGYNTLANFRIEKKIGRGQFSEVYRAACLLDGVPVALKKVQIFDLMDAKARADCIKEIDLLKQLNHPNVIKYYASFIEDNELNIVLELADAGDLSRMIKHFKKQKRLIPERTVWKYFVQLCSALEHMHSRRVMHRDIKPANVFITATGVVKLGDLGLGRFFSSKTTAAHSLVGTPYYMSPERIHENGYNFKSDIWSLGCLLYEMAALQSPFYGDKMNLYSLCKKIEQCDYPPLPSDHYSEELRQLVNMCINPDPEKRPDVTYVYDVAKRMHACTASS
UniProt Q96Q15: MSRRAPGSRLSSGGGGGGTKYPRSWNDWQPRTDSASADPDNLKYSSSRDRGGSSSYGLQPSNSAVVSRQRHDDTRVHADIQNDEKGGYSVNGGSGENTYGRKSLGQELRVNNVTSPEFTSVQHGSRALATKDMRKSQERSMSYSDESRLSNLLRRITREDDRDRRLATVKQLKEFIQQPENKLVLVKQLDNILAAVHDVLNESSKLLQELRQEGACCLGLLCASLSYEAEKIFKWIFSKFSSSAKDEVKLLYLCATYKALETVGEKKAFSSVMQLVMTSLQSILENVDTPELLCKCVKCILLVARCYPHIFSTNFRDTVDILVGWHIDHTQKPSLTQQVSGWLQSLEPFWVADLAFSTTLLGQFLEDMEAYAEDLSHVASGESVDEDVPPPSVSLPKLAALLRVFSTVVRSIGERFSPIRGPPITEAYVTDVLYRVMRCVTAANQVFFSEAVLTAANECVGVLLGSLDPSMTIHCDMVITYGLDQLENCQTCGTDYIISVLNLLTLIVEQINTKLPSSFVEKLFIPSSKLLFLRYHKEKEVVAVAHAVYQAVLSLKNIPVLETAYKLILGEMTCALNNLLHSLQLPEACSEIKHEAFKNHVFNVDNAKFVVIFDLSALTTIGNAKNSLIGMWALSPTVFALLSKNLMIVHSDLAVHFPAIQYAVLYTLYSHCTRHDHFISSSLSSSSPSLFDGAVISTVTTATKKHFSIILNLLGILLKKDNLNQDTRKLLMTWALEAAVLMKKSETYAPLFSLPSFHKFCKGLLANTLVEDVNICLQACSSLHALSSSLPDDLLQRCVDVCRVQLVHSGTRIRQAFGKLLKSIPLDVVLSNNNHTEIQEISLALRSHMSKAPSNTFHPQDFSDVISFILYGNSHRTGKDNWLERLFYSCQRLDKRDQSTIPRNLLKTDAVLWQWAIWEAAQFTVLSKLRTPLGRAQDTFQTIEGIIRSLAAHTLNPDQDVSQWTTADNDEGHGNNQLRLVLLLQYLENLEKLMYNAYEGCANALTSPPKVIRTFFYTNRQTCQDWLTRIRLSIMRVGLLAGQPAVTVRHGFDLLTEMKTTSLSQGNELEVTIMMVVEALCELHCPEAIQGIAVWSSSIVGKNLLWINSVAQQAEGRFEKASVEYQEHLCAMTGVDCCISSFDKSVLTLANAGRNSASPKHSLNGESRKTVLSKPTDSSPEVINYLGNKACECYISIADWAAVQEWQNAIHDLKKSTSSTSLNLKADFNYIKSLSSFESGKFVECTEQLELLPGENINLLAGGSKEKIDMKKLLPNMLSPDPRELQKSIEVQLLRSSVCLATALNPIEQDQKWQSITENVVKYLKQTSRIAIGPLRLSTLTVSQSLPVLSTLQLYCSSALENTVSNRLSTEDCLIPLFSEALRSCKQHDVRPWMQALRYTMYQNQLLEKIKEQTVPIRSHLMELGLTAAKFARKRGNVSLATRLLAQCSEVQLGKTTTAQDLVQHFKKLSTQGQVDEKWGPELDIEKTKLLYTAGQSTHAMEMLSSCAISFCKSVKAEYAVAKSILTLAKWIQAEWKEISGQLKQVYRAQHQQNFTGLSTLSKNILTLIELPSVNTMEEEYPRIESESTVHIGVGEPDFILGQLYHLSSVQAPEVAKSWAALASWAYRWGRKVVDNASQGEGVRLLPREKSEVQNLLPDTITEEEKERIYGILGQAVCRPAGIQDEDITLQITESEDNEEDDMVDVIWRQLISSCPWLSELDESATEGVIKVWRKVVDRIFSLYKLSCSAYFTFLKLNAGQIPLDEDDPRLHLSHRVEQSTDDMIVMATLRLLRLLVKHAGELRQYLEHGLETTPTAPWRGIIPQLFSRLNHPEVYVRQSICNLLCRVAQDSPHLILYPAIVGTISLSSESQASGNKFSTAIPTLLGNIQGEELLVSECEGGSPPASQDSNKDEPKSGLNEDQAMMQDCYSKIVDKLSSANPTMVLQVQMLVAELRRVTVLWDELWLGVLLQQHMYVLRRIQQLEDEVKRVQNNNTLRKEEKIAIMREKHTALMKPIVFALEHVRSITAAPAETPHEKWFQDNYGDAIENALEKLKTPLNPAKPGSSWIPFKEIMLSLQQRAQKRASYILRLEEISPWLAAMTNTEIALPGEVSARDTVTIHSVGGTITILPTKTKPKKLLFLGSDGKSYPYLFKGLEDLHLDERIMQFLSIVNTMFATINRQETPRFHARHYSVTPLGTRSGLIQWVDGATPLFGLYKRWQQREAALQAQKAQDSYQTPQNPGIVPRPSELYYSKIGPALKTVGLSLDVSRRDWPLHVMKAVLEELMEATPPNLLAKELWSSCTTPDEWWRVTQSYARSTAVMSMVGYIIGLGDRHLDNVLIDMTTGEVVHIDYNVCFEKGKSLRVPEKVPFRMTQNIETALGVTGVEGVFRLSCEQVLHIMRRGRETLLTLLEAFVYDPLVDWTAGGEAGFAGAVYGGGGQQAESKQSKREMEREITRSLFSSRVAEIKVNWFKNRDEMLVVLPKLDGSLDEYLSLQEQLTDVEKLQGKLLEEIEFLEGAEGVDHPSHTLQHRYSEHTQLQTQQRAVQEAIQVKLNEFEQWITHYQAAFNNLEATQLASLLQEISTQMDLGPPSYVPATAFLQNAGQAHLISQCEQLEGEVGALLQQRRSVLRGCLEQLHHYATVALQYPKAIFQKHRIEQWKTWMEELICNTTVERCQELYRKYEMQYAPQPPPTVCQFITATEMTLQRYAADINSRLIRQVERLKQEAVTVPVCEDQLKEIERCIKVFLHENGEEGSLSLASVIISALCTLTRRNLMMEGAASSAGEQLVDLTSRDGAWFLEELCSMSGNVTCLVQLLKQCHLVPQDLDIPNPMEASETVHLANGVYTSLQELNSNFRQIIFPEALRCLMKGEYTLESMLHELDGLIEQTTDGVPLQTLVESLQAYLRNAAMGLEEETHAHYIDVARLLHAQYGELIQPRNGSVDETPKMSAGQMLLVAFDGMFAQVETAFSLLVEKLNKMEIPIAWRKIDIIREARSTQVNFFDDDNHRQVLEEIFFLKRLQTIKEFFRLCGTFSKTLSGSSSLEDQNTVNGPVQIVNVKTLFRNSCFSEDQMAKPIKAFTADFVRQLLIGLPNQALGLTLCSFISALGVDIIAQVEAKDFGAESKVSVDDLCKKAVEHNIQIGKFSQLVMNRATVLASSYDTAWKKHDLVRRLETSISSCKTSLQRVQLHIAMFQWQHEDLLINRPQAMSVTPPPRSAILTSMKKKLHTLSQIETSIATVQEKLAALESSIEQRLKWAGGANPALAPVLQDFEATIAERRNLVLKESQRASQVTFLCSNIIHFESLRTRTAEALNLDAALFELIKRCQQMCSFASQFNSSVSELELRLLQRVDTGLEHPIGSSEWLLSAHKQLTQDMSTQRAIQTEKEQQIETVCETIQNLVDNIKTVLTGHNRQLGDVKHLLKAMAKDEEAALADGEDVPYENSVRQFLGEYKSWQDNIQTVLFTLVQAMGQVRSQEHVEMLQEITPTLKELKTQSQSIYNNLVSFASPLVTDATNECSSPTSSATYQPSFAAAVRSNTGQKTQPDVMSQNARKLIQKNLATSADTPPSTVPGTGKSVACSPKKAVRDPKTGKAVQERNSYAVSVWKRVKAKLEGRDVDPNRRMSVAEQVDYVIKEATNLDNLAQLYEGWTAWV
UniProt Q7Z7E8: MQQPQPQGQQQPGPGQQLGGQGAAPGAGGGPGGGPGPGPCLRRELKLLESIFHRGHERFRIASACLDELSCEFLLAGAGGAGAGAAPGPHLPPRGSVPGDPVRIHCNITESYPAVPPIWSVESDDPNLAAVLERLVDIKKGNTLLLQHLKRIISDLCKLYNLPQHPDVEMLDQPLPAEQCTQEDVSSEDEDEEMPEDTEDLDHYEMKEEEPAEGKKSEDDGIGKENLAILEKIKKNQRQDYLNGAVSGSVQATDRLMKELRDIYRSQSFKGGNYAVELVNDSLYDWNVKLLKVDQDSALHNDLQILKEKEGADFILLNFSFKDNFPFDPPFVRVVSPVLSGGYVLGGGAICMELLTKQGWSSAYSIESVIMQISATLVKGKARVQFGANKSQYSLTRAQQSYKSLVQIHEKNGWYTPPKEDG
UniProt P06241: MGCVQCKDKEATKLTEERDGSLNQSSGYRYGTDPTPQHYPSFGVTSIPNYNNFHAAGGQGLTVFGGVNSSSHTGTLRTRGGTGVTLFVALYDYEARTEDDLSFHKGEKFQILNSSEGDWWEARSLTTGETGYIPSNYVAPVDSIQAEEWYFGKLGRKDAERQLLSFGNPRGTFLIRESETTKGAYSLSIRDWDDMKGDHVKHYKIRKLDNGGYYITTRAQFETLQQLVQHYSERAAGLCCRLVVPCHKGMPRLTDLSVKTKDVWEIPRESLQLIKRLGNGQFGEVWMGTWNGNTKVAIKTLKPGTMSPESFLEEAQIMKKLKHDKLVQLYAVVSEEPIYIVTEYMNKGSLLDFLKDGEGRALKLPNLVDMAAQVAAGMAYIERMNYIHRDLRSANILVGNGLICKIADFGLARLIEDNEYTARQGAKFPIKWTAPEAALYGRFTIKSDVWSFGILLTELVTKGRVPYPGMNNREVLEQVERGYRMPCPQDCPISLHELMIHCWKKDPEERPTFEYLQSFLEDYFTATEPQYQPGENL

T1: FLAG-tagged OATP1B1 (organic anion transporting polypeptide 1B1) (UniProt Q9Y6L6)
T1 sequence: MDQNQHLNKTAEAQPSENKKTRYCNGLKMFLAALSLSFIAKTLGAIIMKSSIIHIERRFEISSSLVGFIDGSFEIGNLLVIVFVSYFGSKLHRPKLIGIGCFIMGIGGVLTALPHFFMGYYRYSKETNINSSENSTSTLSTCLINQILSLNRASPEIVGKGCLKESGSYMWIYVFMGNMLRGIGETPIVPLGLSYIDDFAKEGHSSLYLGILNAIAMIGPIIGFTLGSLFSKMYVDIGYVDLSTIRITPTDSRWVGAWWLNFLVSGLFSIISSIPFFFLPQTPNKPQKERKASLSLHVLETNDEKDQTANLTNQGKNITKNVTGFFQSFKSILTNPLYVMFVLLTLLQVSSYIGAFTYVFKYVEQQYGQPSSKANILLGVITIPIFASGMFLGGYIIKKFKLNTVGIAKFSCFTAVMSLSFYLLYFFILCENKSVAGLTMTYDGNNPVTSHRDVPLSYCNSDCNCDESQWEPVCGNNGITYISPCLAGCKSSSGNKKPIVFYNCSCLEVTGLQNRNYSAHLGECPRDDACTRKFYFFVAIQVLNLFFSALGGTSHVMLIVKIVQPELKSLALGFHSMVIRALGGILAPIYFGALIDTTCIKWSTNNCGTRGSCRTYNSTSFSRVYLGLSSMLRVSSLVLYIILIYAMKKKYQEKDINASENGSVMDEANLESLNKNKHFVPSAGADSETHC

T2: FLAG-tagged OATP1B3 (organic anion transporting polypeptide 1B3) (UniProt Q9NPD5)
T2 sequence: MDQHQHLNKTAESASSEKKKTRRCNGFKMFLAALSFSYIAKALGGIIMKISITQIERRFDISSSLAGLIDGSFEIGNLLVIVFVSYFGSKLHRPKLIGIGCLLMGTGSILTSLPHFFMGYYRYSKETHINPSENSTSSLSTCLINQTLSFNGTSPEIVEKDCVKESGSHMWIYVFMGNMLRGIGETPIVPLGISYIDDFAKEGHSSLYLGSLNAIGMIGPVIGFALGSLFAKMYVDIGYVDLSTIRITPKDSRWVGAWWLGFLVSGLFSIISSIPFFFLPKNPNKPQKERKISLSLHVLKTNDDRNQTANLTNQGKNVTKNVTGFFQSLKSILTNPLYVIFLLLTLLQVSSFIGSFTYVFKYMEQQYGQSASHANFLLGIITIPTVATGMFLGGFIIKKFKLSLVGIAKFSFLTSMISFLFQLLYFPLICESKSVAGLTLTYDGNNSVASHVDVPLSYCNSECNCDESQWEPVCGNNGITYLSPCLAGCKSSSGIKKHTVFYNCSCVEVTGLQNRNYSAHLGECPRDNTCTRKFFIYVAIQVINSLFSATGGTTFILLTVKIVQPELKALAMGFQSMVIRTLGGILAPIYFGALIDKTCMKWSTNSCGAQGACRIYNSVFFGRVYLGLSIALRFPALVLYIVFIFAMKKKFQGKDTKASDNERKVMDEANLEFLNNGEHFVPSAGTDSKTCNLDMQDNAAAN


Assays:
[1] = molecular target: T1, FLAG-tagged OATP1B1 (organic anion transporting polypeptide 1B1); test: affinity purification with mass spectrometry; FLAG-IP (M2 resin, overnight, 4 °C) from whole cell lysates of HEK293-FLAG-OATP1B1, HEK293-FLAG-OATP1B3 and HEK293-Mock cells; lysis buffer 50 mM Tris-HCl pH 7.4, 150 mM NaCl, 1 mM EDTA, 1% Triton X-100; seven washes; elution in SDS sample buffer at 60 °C; LC-MS/MS; N = 1; no drug treatment
[2] = molecular target: T2, FLAG-tagged OATP1B3 (organic anion transporting polypeptide 1B3); test: as above

| Molecule | binding [1] | binding [2] |
| --- | --- | --- |
| Abl interactor 2 (from UniProt Q9NYB9 1-513) | binds | no binding |
| Bone morphogenetic protein receptor type-2 (from UniProt Q13873 27-1038) | binds | binds |
| E3 ubiquitin-protein ligase AMFR (from UniProt Q9UKV5 1-643) (enzyme) | binds | no binding |
| E3 ubiquitin-protein ligase RNF5 (from UniProt Q99942 1-180) (enzyme) | binds | binds |
| E3 ubiquitin-protein ligase UBR3 (from UniProt Q6ZT12 1-1888) (enzyme) | binds | no binding |
| G protein-coupled receptor kinase 6 (from UniProt P43250 1-576) (enzyme) | binds | binds |
| Mitochondrial ubiquitin ligase activator of NFKB 1 (from UniProt Q969V5 1-352) (enzyme) | binds | no binding |
| Non-receptor tyrosine-protein kinase TYK2 (from UniProt P29597 1-1187) (enzyme) | binds | no binding |
| Peptidyl-prolyl cis-trans isomerase B (Cyclophilin B) (from UniProt P23284 34-216) (enzyme) | no binding | no binding |
| RAC-beta serine/threonine-protein kinase (from UniProt P31751 1-481) (enzyme) | binds | binds |
| Receptor tyrosine-protein kinase erbB-2 (from UniProt P04626 23-1255) | binds | no binding |
| Serine/threonine-protein kinase LMTK2 (from UniProt Q8IWU2 1-1503) (enzyme) | binds | no binding |
| Serine/threonine-protein kinase Nek7 (from UniProt Q8TDX7 1-302) (enzyme) | binds | binds |
| Serine/threonine-protein kinase SMG1 (from UniProt Q96Q15 1-3661) (enzyme) | binds | no binding |
| Tyrosine-protein kinase Yes (from UniProt P07947 1-543) (enzyme) | binds | binds |
| Ubiquitin carboxyl-terminal hydrolase 24 (from UniProt Q9UPU5 1-2620) (enzyme) | binds | binds |
| Ubiquitin-conjugating enzyme E2 Q1 (from UniProt Q7Z7E8 1-422) | binds | no binding |
| Peptidyl-prolyl cis-trans isomerase FKBP5 (enzyme, UniProt Q13451 1-457) MTTDEGAKNNEESPTATVAEQGEDITSKKDRGVLKIVKRVGNGEETPMIGDKVYVHYKGKLSNGKKFDSSHDRNEPFVFSLGKGQVIKAWDIGVATMKKGEICHLLCKPEYAYGSAGSLPKIPSNATLFFEIELLDFKGEDLFEDGGIIRRTKRKGEGYSNPNEGATVEIHLEGRCGGRMFDCRDVAFTVGEGEDHDIPIGIDKALEKMQREEQCILYLGPRYGFGEAGKPKFGIEPNAELIYEVTLKSFEKAKESWEMDTKEKLEQAAIVKEKGTVYFKGGKYMQAVIQYGKIVSWLEMEYGLSEKESKASESFLLAAFLNLAMCYLKLREYTKAVECCDKALGLDSANEKGLYRRGEAQLLMNEFESAKGDFEKVLEVNPQNKAARLQISMCQKKAKEHNERDRRIYANMFKKFAEQDAKEEANKAMGKKTSEGVTNEKGTDSQAMEEEKPEGHV | binds | no binding |
| E3 ubiquitin-protein ligase Praja-1 (enzyme, UniProt Q8NG27 1-643) MGQESSKPVWPNPTGGYQSNTGRRYGRRHAYVSFRPPTSQRERIASQRKTNSEVPMHRSAPSQTTKRSRSPFSTTRRSWDDSESSGTNLNIDNEDYSRYPPREYRASGSRRGMAYGHIDSYGADDSEEEGAGPVERPPVRGKTGKFKDDKLYDPEKGARSLAGPPPHFSSFSRDVREERDKLDPVPAARCSASRADFLPQSSVASQSSSEGKLATKGDSSERERREQNLPARPSRAPVSICGGGENTSKSAEEPVVRPKIRNLASPNCVKPKIFFDTDDDDDMPHSTSRWRDTANDNEGHSDGLARRGRGESSSGYPEPKYPEDKREARSDQVKPEKVPRRRRTMADPDFWTHSDDYYKYCDEDSDSDKEWIAALRRKYRSREQTLSSSGESWETLPGKEEREPPQAKVSASTGTSPGPGASASAGAGAGASAGSNGSNYLEEVREPSLQEEQASLEEGEIPWLQYHENDSSSEGDNDSGHELMQPGVFMLDGNNNLEDDSSVSEDLEVDWSLFDGFADGLGVAEAISYVDPQFLTYMALEERLAQAMETALAHLESLAVDVEVANPPASKESIDALPEILVTEDHGAVGQEMCCPICCSEYVKGEVATELPCHHYFHKPCVSIWLQKSGTCPVCRCMFPPPL | binds | binds |

More lines, now with the values ahead:

| binding [1] | binding [2] | Molecule |
| --- | --- | --- |
| binds | binds | Casein kinase I isoform gamma-3 (from UniProt Q9Y6M4 1-447) (enzyme) |
| binds | no binding | Cell division cycle 7-related protein kinase (from UniProt O00311 1-574) (enzyme) |
| binds | no binding | E3 ubiquitin-protein ligase HECTD1 (from UniProt Q9ULT8 1-2610) (enzyme) |
| binds | no binding | E3 ubiquitin-protein ligase TRIM32 (from UniProt Q13049 1-653) (enzyme) |
| binds | no binding | E3 ubiquitin-protein ligase listerin (from UniProt O94822 1-1766) (enzyme) |
| binds | binds | Peptidyl-prolyl cis-trans isomerase FKBP8 (from UniProt Q14318 1-412) (enzyme) |
| binds | no binding | Probable E3 ubiquitin-protein ligase HERC1 (from UniProt Q15751 1-4861) (enzyme) |
| binds | no binding | Serine/threonine-protein kinase 19 (human (endogenous in HEK293)) (enzyme) |
| binds | binds | Tyrosine-protein kinase Fyn (from UniProt P06241 1-537) (enzyme) |
| binds | no binding | Ubiquitin-protein ligase E3C (from UniProt Q15386 1-1083) (enzyme) |

These are yes or no findings as the source states them, for the method shown. Binding seen in cells or lysates may run through a third protein. These calls come from enrichment with a bait or labelling near it, and not all partners need be listed. No binding means not detected with the bait. Sequences can lack the tags named with a protein.
